# Results from one PubChem assay

Data taken from PubChem BioAssay AID504749, deposited by NCATS (2011).

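A panel of P. falciparum strains inside erythrocytes is exposed to compounds for three days, then a DNA-binding dye reports the amount of parasite DNA.
Each compound was titrated across a series from about 0.000037 to 29 µM.
The number is the fitted AC50, the concentration giving a half-maximal change in signal; a lower value means higher potency, whether the curve shows a decrease or an increase.
Calls follow the curve class and fit quality: every row here is inconclusive, covering signal-raising curves and weak, poorly fitted, partial or highest-dose-only inhibition curves.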

Values are in µM.
Every entry below has the call inconclusive.
Only part of the assay is shown, chiefly results filed as inconclusive.
Potencies fitted to partial, single-point or poorly fitting curves are rough.
Some entries filed as inconclusive have a full curve.
The first word of each remark tells which way the curve ran; it can be opposite to the aim of the assay.

| # | compound | tested on / at | potency (µM) | curve |
|---|---|---|---|---|
| 1 | `C[C@]12C[C@H](O)[C@H]3[C@@H](CCC4=CC(=O)CC[C@@]43C)[C@@H]1CC[C@@H]2C(=O)CO` | CP252 | 17.78 | inhibitor, single point |
| 2 | `C[C@]12C[C@H](O)[C@H]3[C@@H](CCC4=CC(=O)CC[C@@]43C)[C@@H]1CC[C@@H]2C(=O)CO` | TAB165 | 17.78 | inhibitor, single point |
| 3 | `C[C@]12C[C@H](O)[C@H]3[C@@H](CCC4=CC(=O)CC[C@@]43C)[C@@H]1CC[C@@H]2C(=O)CO` | AA1029 | 11.22 | inhibitor, single point |
| 4 | `C[C@]12C[C@H](O)[C@H]3[C@@H](CCC4=CC(=O)CC[C@@]43C)[C@@H]1CC[C@@H]2C(=O)CO` | ATS95 | 17.78 | inhibitor, single point |
| 5 | `C[C@]12C[C@H](O)[C@H]3[C@@H](CCC4=CC(=O)CC[C@@]43C)[C@@H]1CC[C@@H]2C(=O)CO` | C2A | 17.78 | inhibitor, single point |
| 6 | `C[C@]12C[C@H](O)[C@H]3[C@@H](CCC4=CC(=O)CC[C@@]43C)[C@@H]1CC[C@@H]2C(=O)CO` | P94_40 | 15.85 | inhibitor, single point |
| 7 | `C[C@]12C[C@H](O)[C@H]3[C@@H](CCC4=CC(=O)CC[C@@]43C)[C@@H]1CC[C@@H]2C(=O)CO` | AS120 | 17.78 | inhibitor, single point |
| 8 | `C[C@]12C[C@H](O)[C@H]3[C@@H](CCC4=CC(=O)CC[C@@]43C)[C@@H]1CC[C@@H]2C(=O)CO` | PAD | 11.22 | inhibitor, single point |
| 9 | `C[C@]12C[C@H](O)[C@H]3[C@@H](CCC4=CC(=O)CC[C@@]43C)[C@@H]1CC[C@@H]2C(=O)CO` | CP265 | 11.22 | inhibitor, single point |
| 10 | `C[C@]12C[C@H](O)[C@H]3[C@@H](CCC4=CC(=O)CC[C@@]43C)[C@@H]1CC[C@@H]2C(=O)CO` | TAB109 | 17.78 | inhibitor, single point |
| 11 | `C[C@]12C[C@H](O)[C@H]3[C@@H](CCC4=CC(=O)CC[C@@]43C)[C@@H]1CC[C@@H]2C(=O)CO` | CP250 | 17.78 | inhibitor, single point |
| 12 | `C[C@]12C[C@H](O)[C@H]3[C@@H](CCC4=CC(=O)CC[C@@]43C)[C@@H]1CC[C@@H]2C(=O)CO` | CP185 | 15.85 | inhibitor, single point |
| 13 | `CC[C@H]1OC(=O)[C@H](C)C(=O)[C@H](C)[C@@H](OC2O[C@H](C)C[C@H](N(C)C)[C@@H]2O)[C@@](C)(OC)C[C@@H](C)C(=O)[C@@H](C)C2N(CCCCn3cnc(-c4cccnc4)c3)C(=O)O[C@@]21C` (stereo partly specified) | DIV30 | 19.01 | inhibitor, single point |
| 14 | `CC[C@H]1OC(=O)[C@H](C)C(=O)[C@H](C)[C@@H](OC2O[C@H](C)C[C@H](N(C)C)[C@@H]2O)[C@@](C)(OC)C[C@@H](C)C(=O)[C@@H](C)C2N(CCCCn3cnc(-c4cccnc4)c3)C(=O)O[C@@]21C` (stereo partly specified) | CP217 | 17.78 | inhibitor, single point |
| 15 | `CC[C@H]1OC(=O)[C@H](C)C(=O)[C@H](C)[C@@H](OC2O[C@H](C)C[C@H](N(C)C)[C@@H]2O)[C@@](C)(OC)C[C@@H](C)C(=O)[C@@H](C)C2N(CCCCn3cnc(-c4cccnc4)c3)C(=O)O[C@@]21C` (stereo partly specified) | HB3 | 11.22 | inhibitor, single point |
| 16 | `CC[C@H]1OC(=O)[C@H](C)C(=O)[C@H](C)[C@@H](OC2O[C@H](C)C[C@H](N(C)C)[C@@H]2O)[C@@](C)(OC)C[C@@H](C)C(=O)[C@@H](C)C2N(CCCCn3cnc(-c4cccnc4)c3)C(=O)O[C@@]21C` (stereo partly specified) | P93_24 | 10 | inhibitor, single point |
| 17 | `CC[C@H]1OC(=O)[C@H](C)C(=O)[C@H](C)[C@@H](OC2O[C@H](C)C[C@H](N(C)C)[C@@H]2O)[C@@](C)(OC)C[C@@H](C)C(=O)[C@@H](C)C2N(CCCCn3cnc(-c4cccnc4)c3)C(=O)O[C@@]21C` (stereo partly specified) | AA1029 | 12.59 | inhibitor, single point |
| 18 | `CC[C@H]1OC(=O)[C@H](C)C(=O)[C@H](C)[C@@H](OC2O[C@H](C)C[C@H](N(C)C)[C@@H]2O)[C@@](C)(OC)C[C@@H](C)C(=O)[C@@H](C)C2N(CCCCn3cnc(-c4cccnc4)c3)C(=O)O[C@@]21C` (stereo partly specified) | TAB165 | 11.22 | inhibitor, single point |
| 19 | `CC[C@H]1OC(=O)[C@H](C)C(=O)[C@H](C)[C@@H](OC2O[C@H](C)C[C@H](N(C)C)[C@@H]2O)[C@@](C)(OC)C[C@@H](C)C(=O)[C@@H](C)C2N(CCCCn3cnc(-c4cccnc4)c3)C(=O)O[C@@]21C` (stereo partly specified) | CP191 | 17.78 | inhibitor, single point |
| 20 | `CCOC(=O)C1=C(C)NC(C)=C(C(=O)OC)C1c1cccc(Cl)c1Cl` (stereo unspecified) | ICS | 17.78 | inhibitor, single point |
| 21 | `CCOC(=O)C1=C(C)NC(C)=C(C(=O)OC)C1c1cccc(Cl)c1Cl` (stereo unspecified) | 7G8 | 8.912 | inhibitor, partial curve |
| 22 | `CCOC(=O)C1=C(C)NC(C)=C(C(=O)OC)C1c1cccc(Cl)c1Cl` (stereo unspecified) | CP335 | 12 | inhibitor, partial curve, poor fit |
| 23 | `CCOC(=O)C1=C(C)NC(C)=C(C(=O)OC)C1c1cccc(Cl)c1Cl` (stereo unspecified) | CP329 | 19.01 | inhibitor, partial curve, poor fit |
| 24 | `CCOC(=O)C1=C(C)NC(C)=C(C(=O)OC)C1c1cccc(Cl)c1Cl` (stereo unspecified) | PC26 | 19.01 | inhibitor, single point |
| 25 | `CCOC(=O)C1=C(C)NC(C)=C(C(=O)OC)C1c1cccc(Cl)c1Cl` (stereo unspecified) | CP215 | 4.776 | inhibitor, partial curve, poor fit |
| 26 | `CCCCNc1ccc(C(=O)OCCN(C)C)cc1` | CP329 | 0.5103 | activator, full curve, poor fit |
| 27 | `CCCCNc1ccc(C(=O)OCCN(C)C)cc1` | PC49 | 4.467 | activator, partial curve |
| 28 | `CCCCNc1ccc(C(=O)OCCN(C)C)cc1` | DFO2036 | 2.512 | activator, partial curve |
| 29 | `CCCCNc1ccc(C(=O)OCCN(C)C)cc1` | ATS189 | 1.995 | activator, partial curve |
| 30 | `CCCCNc1ccc(C(=O)OCCN(C)C)cc1` | DIV17 | 0.8087 | activator, full curve |
| 31 | `CCCCNc1ccc(C(=O)OCCN(C)C)cc1` | CP266 | 9.074 | activator, single point |
| 32 | `CCCCNc1ccc(C(=O)OCCN(C)C)cc1` | CP201 | 0.7208 | activator, full curve, poor fit |
| 33 | `O=C1CCC(c2ccccc2)(C2CCN(Cc3ccccc3)CC2)C(=O)N1` (stereo unspecified) | GB4 | 8.492 | inhibitor, partial curve |
| 34 | `O=C1CCC(c2ccccc2)(C2CCN(Cc3ccccc3)CC2)C(=O)N1` (stereo unspecified) | CP297 | 16.94 | inhibitor, single point |

3 of the entries, repeated:

| compound | tested on / at | potency (µM) | curve |
|---|---|---|---|
| `CCCCNc1ccc(C(=O)OCCN(C)C)cc1` | ATS189 | 1.995 | activator, partial curve |
| `CCOC(=O)C1=C(C)NC(C)=C(C(=O)OC)C1c1cccc(Cl)c1Cl` (stereo unspecified) | PC26 | 19.01 | inhibitor, single point |
| `CC[C@H]1OC(=O)[C@H](C)C(=O)[C@H](C)[C@@H](OC2O[C@H](C)C[C@H](N(C)C)[C@@H]2O)[C@@](C)(OC)C[C@@H](C)C(=O)[C@@H](C)C2N(CCCCn3cnc(-c4cccnc4)c3)C(=O)O[C@@]21C` (stereo partly specified) | DIV30 | 19.01 | inhibitor, single point |